The values that follow come from publication doi:10.1101/2024.01.16.575832.

The target in test [1] is T1, full-length Ply2638A endolysin (PlyFL) (Staphylococcus pseudintermedius phage φ2638A) (UniProt Q4ZD58).
T1 sequence: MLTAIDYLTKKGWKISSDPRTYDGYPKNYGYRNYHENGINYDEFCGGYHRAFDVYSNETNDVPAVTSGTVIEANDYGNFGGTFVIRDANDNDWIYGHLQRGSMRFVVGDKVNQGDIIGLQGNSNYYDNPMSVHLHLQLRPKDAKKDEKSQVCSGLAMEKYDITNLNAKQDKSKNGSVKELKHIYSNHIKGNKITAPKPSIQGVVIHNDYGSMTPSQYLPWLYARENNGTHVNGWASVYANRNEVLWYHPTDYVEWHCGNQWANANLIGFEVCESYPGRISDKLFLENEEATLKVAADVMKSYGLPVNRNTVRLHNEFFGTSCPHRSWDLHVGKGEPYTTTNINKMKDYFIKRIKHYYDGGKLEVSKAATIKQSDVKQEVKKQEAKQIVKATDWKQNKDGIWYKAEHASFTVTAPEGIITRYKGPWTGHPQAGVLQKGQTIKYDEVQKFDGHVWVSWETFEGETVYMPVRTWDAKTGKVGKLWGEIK
Put plainly: SPR.

For test [2], the target named is Ply2638A short variant isoform (PlySV) (Staphylococcus pseudintermedius phage φ2638A) (UniProt Q4ZD58). The test can be described thus: SEC-MALS.
For test [3] the target is unchanged. Put plainly: SEC-MALS. This is another data set of the same source.
The target of test [4] is T1, full-length Ply2638A endolysin (PlyFL) (Staphylococcus pseudintermedius phage φ2638A). Put plainly: SEC.

Read-outs that look alike come from different tables or passages of the source. Results are given in words; binding and its absence hold for the method and conditions named. Some entries that bind do so weakly or less than the wild type.

“SH3b cell wall binding domain of Ply2638A (CBD) (from UniProt Q4ZD58 393-486) (domain or fragment)”: the binding entry in test [1] is given as “no binding (tested: 5 μM)”.

As to “M23 peptidase domain of Ply2638A (M23-2638A) (from UniProt Q4ZD58 1-174) (domain or fragment)”, the binding entry in test [1] is “no binding (tested: 5 μM)”.

B1: Ply2638A short variant isoform (PlySV) (domain or fragment, UniProt Q4ZD58 180-486)
chain: LKHIYSNHIKGNKITAPKPSIQGVVIHNDYGSMTPSQYLPWLYARENNGTHVNGWASVYANRNEVLWYHPTDYVEWHCGNQWANANLIGFEVCESYPGRISDKLFLENEEATLKVAADVMKSYGLPVNRNTVRLHNEFFGTSCPHRSWDLHVGKGEPYTTTNINKMKDYFIKRIKHYYDGGKLEVSKAATIKQSDVKQEVKKQEAKQIVKATDWKQNKDGIWYKAEHASFTVTAPEGIITRYKGPWTGHPQAGVLQKGQTIKYDEVQKFDGHVWVSWETFEGETVYMPVRTWDAKTGKVGKLWGEIK
B1: the binding entry in test [2] was “no binding (tested: 1 mg/mL)”; in test [3], “no binding (tested: 1 mg/mL)”; in test [4] it was “binds”; in test [1], “binds”.
